Laboratory results published in US20160046678A1 (ZYNGENIA, published 2016).
No constants are given. Whether binding was seen depends on the method and setting. Some entries that bind do so weakly or less than the wild type.

The chains behind the UniProt entries cited, without tags or fusion partners. Residues count along the entry.
UniProt P08069, residues 31-932: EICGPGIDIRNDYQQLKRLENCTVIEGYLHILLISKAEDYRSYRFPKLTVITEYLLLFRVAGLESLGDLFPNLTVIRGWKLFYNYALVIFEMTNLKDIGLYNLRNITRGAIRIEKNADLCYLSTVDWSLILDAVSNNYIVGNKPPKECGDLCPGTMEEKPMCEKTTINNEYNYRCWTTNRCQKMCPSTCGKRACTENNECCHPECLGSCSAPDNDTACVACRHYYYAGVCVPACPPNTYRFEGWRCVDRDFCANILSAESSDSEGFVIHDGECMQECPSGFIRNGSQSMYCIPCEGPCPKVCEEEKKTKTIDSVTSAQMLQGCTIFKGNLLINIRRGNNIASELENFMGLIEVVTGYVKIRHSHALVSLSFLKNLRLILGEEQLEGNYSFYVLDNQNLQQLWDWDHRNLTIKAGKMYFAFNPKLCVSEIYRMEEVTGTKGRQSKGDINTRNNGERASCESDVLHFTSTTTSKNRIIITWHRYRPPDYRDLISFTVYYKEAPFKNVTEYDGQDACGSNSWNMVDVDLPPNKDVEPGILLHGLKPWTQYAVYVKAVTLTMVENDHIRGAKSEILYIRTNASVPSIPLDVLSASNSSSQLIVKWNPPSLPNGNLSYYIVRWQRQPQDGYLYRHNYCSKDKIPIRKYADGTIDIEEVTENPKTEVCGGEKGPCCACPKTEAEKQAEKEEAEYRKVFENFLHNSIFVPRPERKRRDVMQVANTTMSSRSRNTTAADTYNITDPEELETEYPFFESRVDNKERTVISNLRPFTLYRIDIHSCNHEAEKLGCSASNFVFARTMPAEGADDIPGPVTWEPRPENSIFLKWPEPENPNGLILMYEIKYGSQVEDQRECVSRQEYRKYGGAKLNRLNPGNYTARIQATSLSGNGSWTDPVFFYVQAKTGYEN

These binders were tested against IGF1R (UniProt P08069) (assay: MRD identification, Example 48).

binding, binds:
IPHLCKEFPELCFEQR [IGF353]
VHPLCMEFTELCFHLR [IGF337]
IHPLCKEFPELCFDVD [IGF319]
AHVLCLEFHELCFDMG [IGF324]
SYLLCREFSELCFDKT [IGF354]
MELLCFEFSELCFGSH [IGF357]
PHPLCREFPVLCFDDT [IGF329]
APSLCWEFKELCFDSE [IGF367]
VPYLCLEFAELCFQVD [IGF355]
VPLLCLEFAELCFHVE [IGF332]
APSLCLEFIELCFDNM [IGF328]
AHWLCLEFKELCFGND [IGF347]
TVALCKEFPELCFDIV [IGF358]
VHPLCIEFPALCFDTR [IGF362]
YPPLCLEFPELCFWNH [IGF321]
ALRLCNEFPELCFGGT [IGF341]
DSRLCAEFPELCFEDV [IGF351]
AHWLCLEFPELCFDKL [IGF374]
VPPLCLEFAELCFYAD [IGF382]
RPLLCYEFSELCFDIT [IGF325]
TPSLCREFTELCFDSD [IGF336]
SERLCLEFAELCFGHG [IGF373]
SSSLCLEFSELCFHDD [IGF340]
VPSLCLEFADLCFHDI [IGF378]
IPDLCREFEELCFGSK [IGF318]
APLLCLEFPELCFEDI [IGF364]
VPSLCMEFPELCFTTE [IGF331]
PPLLCLEFHELCFHIE [IGF323]
AATLCLEFSELCFDMS [IGF352]
AHALCLEFSELCFDVT [IGF369]
VHPLCLEFAELCFVNY [IGF330]
TPPLCFEFPELCFHLS [IGF372]
DPYLCLEFEELCFRFV [IGF359]
YLALCYEFRELCFGDQ [IGF363]
VPSLCLEFQELCFTTE [IGF349]
AMRLCNEFHELCFGVV [IGF334]
VPSLCFEFEELCFDWS [IGF348]
VPPLCVEFSELCFDAP [IGF356]
APLLCLEFPELCFGWD [IGF344]
IPLLCLEFPVLCFENE [IGF343]
TPALCLEFAELCFEDS [IGF360]
QEALCIEFHELCFEEY [IGF385]
PHPLCLEFPELCFGAE [IGF350]
RPSLCLEFRELCFDTL [IGF366]
HPRLCLEFSELCFDEM [IGF326]
APSLCTEFRELCFDII [IGF381]
AGALCKEFPILCFTME [IGF338]
TPSLCVEFRELCFDDL [IGF384]
APSLCLEFRELCFEDY [IGF377]
DLHLCREFSELCFSSP [IGF375]
EERLCKEFPELCFMMT [IGF335]
TPSLCLEFPELCFHGT [IGF376]
RHPLCVEFPELCFVDY [IGF361]
VHYLCLEFQELCFDEL [IGF365]
PALLCQEFAELCFDMP [IGF345]
IPALCLEFSELCFSTS [IGF327]
YMRLCYEFSELCFHAS [IGF380]
AGALCREFAELCFHNH [IGF371]
QEPLCVEFRELCFNED [IGF317]
GPLLCAEFVELCFGDD [IGF320]
YLHLCREFTELCFDEG [IGF346]
MPALCLEFRELCFEDP [IGF379]
SHNLCLEFVELCFGDV [IGF322]
EHPLCREFSELCFGMG [IGF339]
TQYLCIEFAELCFDTI [IGF370]
